For assay [1], the target named is hTMEM63A-CGFP (human) (UniProt O94886). Briefly: SEC; fluorescence-detection SEC (FSEC) of detergent-solubilised Expi293F cells (1% LMNG, 0.1% CHS; also DDM or GDN), Superose 6 increase 5/150 in TBS (20 mM Tris pH 8.0, 150 mM NaCl) with 10 uM LMNG, GFP fluorescence detected. In general terms: SEC sorts molecules by how far they enter the pores of the column.
The target in assay [2] is hTMEM63A in detergent (human) (UniProt O94886). Briefly: cryo-EM structure; purified protein in detergent (extracted with LMNG-CHS, SEC in TBS with 0.03% digitonin); both purified.

These are yes or no findings as the source states them, for the method shown. For some assays here: Sequences can lack the tags named with a protein.

B1: hTMEM63A-CGFP (protein, UniProt O94886 1-807)
chain: MMDSPFLELWQSKAVSIREQLGLGDRPNDSYCYNSAKNSTVLQGVTFGGIPTVLLIDVSCFLFLILVFSIIRRRFWDYGRIALVSEADSESRFQRLSSTSSSGQQDFENELGCCPWLTAIFRLHDDQILEWCGEDAIHYLSFQRHIIFLLVVVSFLSLCVILPVNLSGDLLDKDPYSFGRTTIANLQTDNDLLWLHTIFAVIYLFLTVGFMRHHTQSIKYKEENLVRRTLFITGLPRDARKETVESHFRDAYPTCEVVDVQLCYNVAKLIYLCKEKKKTEKSLTYYTNLQVKTGQRTLINPKPCGQFCCCEVLGCEWEDAISYYTRMKDRLLERITEEERHVQDQPLGMAFVTFQEKSMATYILKDFNACKCQSLQCKGEPQPSSHSRELYTSKWTVTFAADPEDICWKNLSIQGLRWWLQWLGINFTLFLGLFFLTTPSIILSTMDKFNVTKPIHALNNPIISQFFPTLLLWSFSALLPSIVYYSTLLESHWTKSGENQIMMTKVYIFLIFMVLILPSLGLTSLDFFFRWLFDKTSSEASIRLECVFLPDQGAFFVNYVIASAFIGNGMELLRLPGLILYTFRMIMAKTAADRRNVKQNQAFQYEFGAMYAWMLCVFTVIVAYSITCPIIAPFGLIYILLKHMVDRHNLYFVYLPAKLEKGIHFAAVNQALAAPILCLFWLYFFSFLRLGMKAPATLFTFLVLLLTILVCLAHTCFGCFKHLSPLNYKTEEPASDKGSEAEAHMPPPFTPYVPRILNGLASERTALSPQQQQQQTYGAIHNISGTIPGQCLAQSATGSVAAAPQEA
Turning to B1, the binding entry in assay [1] is “no binding”.

B2: hTMEM63A in detergent (protein, UniProt O94886 1-807)
chain: B1 chain
On to B2, for which the binding result in assay [2] is given as “no binding”.

These data come from PMC10319725, “A mechanical-coupling mechanism in OSCA/TMEM63 channel mechanosensitivity” (Nature Communications, 2023).
